According to publication PMC3281051:
For at least one entry, the source does not settle the construct or the ends of the probe. For some assays here: Where a protein sequence is shown, tags need not be part of it.

Tests used:
[1] = system: T1, VEGF165 heparin-binding domain; assay: binding assay; conditions: SPR (BIAcore 2000, CM5): PBS + 0.005% Tween-20, 25 C, 30 ul/min, aptamer 0.2-100 nM, 1:1 Langmuir fit; cells: culture medium, 37 C, 2 h, 1% O2; recombinant protein; single-stranded DNA
T1 sequence (looked up, limits assumed): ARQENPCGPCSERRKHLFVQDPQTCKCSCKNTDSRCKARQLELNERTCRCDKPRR

VEGF165 (human) = assay: SPR; conditions: SPR (BIAcore 2000, CM5): PBS + 0.005% Tween-20, 25 C, 30 ul/min, aptamer 0.2-100 nM, 1:1 Langmuir fit; commercial protein; protein details: carrier-free; single-stranded DNA; letters put together from the description

Row | Sequence | Kd [1] | Kd (VEGF165 (human))
1 | ATACCAGTCTATTCAATTGGGCCCGTCCGTATGGTGGGTGTGCTGGCCAGATAGTATGTGCAATCA [VEa5] | 130 nM | –
2 | ATACCAGTCTATTCAATTGGGCCCGTCCGTATGGTGGG [SL12] | – | 5 nM
